Measurements published in paper PMC10692146.
These are yes or no findings as the source states them, for the method shown.

By UniProt entry, the sequences of proteins in these tests, tags left out. Residues count along the entry.
UniProt P02769, residues 25-607: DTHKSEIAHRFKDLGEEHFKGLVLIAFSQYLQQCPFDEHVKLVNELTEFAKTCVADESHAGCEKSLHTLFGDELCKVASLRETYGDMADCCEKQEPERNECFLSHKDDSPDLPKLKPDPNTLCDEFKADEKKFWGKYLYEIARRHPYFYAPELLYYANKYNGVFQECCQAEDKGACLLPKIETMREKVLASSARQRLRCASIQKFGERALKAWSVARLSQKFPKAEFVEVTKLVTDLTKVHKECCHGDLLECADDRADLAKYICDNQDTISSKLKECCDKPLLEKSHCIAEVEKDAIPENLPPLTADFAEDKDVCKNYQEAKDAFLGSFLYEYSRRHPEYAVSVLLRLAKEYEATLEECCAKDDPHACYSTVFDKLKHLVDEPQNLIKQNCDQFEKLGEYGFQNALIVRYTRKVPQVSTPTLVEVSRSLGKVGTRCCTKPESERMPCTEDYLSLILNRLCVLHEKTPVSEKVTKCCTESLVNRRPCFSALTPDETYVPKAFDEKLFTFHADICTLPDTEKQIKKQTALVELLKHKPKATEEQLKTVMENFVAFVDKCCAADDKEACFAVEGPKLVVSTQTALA

Molecular target: T1, FITC-TAB1 peptide (amino acids 384-412 of TAB1)
T1 sequence (peptide, FITC label (end not stated)): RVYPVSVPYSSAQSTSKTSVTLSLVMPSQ
Assay: native gel or EMSA; FITC-TAB1 peptide 0.25 µM pre-mixed with BSA 8 µg/mL, increasing p38α (0–6 µM) in 20 mM Tris pH 7.5, 100 mM NaCl, 20% DMSO, with 2 mM DTT (reduced) or without DTT (oxidized, after 10 µM H2O2 for 1.5 h); 15 min on ice; 7.5% gel, Tris/glycine pH 9.9, 4 °C; fluorescence imaging; both purified

binding: no binding (tested: BSA 8 μg/mL)
Substance: BSA (from UniProt P02769 25-607)
